No constants are given. Whether binding was seen depends on the method and setting. For some assays here: Binding seen in cells or lysates may run through a third protein. Some results given as binding are weak or reduced against the parent protein; the word gives no strength.
Tests used:
[1] = target: human complement component C7 (human (endogenous in serum)) (UniProt P10643); assay: co-IP; biotinylated anti-C7/C5b-7 mAb (2H2 in rat and human serum; 17E7, 59E7, 73D1 in human serum) present at 100 µg/ml during activation of serum with zymosan A and aggregated human IgG at 37°C; captured on avidin beads, washed in PBS, eluted in SDS buffer; western blot with goat anti-C5, -C6, -C7, -C8, -C9
[2] = target: human complement component C9 (human (endogenous in serum)) (UniProt P02748); assay: ELISA; pre-formed TCC in activated serum (1 in 50) captured on aE11 anti-C9 neo-specific antibody; detected with biotinylated anti-C7 mAbs or E2 anti-C8 and streptavidin-HRP
[3] = target: human complement component C7 (human (endogenous in serum)) (UniProt P10643); assay: ELISA; serum activated in the presence of biotinylated mAb, captured on avidin-coated plates; components detected with goat anti-C5, -C6, -C7, -C8, -C9

Sequences of proteins named here, by UniProt entry; tags and fusion partners are left off. A change or cut given only in a name is not applied to a line headed by its entry. Residues count along the entry.
UniProt P10643, residues 23-843: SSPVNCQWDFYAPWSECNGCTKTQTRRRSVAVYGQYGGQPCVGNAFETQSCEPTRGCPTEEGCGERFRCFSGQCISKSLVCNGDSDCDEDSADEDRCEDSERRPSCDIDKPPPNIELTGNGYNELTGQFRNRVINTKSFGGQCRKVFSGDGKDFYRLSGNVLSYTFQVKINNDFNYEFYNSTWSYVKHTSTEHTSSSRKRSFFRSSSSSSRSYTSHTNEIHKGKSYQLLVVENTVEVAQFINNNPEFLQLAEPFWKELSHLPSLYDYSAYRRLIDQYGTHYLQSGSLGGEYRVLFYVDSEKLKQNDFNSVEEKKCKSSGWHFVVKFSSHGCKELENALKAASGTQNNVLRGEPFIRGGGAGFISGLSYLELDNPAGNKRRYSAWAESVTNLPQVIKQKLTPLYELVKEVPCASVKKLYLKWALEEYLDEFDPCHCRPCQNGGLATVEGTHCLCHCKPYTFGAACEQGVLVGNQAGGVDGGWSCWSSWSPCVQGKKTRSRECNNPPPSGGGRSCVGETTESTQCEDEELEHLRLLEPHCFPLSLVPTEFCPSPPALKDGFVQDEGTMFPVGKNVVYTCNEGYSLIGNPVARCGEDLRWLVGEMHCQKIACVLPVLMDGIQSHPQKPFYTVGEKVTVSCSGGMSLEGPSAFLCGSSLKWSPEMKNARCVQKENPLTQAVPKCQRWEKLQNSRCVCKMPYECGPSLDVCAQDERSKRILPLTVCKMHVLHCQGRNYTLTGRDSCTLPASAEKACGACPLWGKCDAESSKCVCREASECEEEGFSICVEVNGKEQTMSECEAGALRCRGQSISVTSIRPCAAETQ
UniProt P02748, residues 22-559: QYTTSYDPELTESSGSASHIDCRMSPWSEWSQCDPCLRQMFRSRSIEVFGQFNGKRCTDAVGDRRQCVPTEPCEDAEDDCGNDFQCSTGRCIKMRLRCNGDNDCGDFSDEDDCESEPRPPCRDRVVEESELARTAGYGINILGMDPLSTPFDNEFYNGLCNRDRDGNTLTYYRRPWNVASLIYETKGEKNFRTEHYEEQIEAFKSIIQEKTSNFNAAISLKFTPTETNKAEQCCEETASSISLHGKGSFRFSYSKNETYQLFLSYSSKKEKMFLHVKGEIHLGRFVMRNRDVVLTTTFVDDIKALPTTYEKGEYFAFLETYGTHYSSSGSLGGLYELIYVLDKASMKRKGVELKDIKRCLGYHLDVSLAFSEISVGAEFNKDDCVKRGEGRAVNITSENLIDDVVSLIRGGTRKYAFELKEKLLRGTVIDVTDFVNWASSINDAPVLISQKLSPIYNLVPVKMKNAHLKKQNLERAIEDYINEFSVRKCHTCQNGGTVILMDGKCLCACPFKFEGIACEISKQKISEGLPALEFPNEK
UniProt P07357: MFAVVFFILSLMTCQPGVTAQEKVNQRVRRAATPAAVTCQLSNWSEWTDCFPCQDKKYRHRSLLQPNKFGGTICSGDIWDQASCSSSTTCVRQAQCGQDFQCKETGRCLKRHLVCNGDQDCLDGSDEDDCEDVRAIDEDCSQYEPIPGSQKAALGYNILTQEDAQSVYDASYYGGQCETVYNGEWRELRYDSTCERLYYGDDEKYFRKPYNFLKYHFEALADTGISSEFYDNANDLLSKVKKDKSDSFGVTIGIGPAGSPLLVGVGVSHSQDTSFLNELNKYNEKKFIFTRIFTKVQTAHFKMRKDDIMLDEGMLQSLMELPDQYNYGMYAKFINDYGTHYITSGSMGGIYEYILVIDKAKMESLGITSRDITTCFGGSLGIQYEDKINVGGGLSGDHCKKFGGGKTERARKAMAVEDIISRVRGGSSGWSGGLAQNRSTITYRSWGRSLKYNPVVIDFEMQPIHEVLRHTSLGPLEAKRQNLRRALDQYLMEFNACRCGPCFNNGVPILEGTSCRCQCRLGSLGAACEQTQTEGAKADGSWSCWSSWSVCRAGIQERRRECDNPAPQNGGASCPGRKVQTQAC
UniProt P13671, residues 22-934: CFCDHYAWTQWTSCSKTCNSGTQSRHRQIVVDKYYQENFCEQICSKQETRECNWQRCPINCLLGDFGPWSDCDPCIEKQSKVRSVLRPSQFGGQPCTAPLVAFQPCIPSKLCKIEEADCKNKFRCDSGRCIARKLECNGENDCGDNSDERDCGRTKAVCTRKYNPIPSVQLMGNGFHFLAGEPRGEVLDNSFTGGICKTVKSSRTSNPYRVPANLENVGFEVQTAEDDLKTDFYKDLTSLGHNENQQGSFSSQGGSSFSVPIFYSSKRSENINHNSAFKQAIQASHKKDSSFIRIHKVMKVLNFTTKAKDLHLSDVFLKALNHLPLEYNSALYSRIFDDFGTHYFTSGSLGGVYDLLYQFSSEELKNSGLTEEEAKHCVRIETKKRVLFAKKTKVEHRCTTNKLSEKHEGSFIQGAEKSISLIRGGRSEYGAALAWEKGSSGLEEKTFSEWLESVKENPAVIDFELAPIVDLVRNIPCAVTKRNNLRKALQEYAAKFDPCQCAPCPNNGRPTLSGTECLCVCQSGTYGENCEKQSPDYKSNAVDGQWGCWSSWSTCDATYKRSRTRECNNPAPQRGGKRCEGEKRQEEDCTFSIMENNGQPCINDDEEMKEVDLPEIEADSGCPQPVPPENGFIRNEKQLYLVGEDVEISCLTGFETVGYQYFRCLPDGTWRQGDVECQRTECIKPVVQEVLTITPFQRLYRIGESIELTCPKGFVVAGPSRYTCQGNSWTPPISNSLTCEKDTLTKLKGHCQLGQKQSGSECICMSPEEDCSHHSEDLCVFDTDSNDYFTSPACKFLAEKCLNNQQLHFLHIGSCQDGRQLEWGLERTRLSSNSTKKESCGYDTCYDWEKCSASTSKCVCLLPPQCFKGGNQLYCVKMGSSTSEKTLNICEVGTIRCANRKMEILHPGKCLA

binding [1]	binding [2]	binding [3]	Substance
binds	binds	binds	human complement component C8 (from UniProt P07357 31-584; P07358 55-591; P07360 21-202) (complex)
–	binds	–	human complement component C7 (from UniProt P10643 23-843)
binds	–	binds	human complement component C6 (from UniProt P13671 22-934)
binds	–	binds	human complement component C9 (from UniProt P02748 22-559)
